From the supplement of paper PMC12872613
This is one part of the list. No stated cut-off is given here; in the data, active = 0.7 or more and inactive = the rest. Most values come without repeats; read them as rough.

The molecules below were run on MiaPaCa-2 CLSA-25 (assay: cell death relative to DMSO vehicle (fraction); higher = more cytotoxic). Settings: 5 µM; treatment time 48 h; medium cystine 25 µM.
With `CC(C)(Sc1cc(C(C)(C)C)c(O)c(C(C)(C)C)c1)Sc1cc(C(C)(C)C)c(OC(=O)CCC(=O)O)c(C(C)(C)C)c1` [Succinobucol] the cell death was inactive: 0.597. In the case of `CC(C)(CO)[C@@H](O)C(=O)NCCC(=O)NCCSSCCNC(=O)CCNC(=O)[C@H](O)C(C)(C)CO` [D-Pantethine], the cell death is reported as inactive: 0.0974. For `O=C(O)Cc1ccc(O)c(O)c1` [3,4-Dihydroxyphenylacetic acid], the cell death was inactive: 0.0383. `CC1=C(/C=C/C(C)=C/C=C/C(C)=C/C=C/C=C(C)/C=C/C=C(C)/C=C/C2=C(C)C(=O)[C@@H](O)CC2(C)C)C(C)(C)C[C@H](O)C1=O` [Astaxanthin] was tested, and the cell death was inactive: 0.00856. `O=C(O)c1cccnc1Nc1cccc(C(F)(F)F)c1` [Niflumic acid] was tested, and the cell death was active: 0.8. `C/C=C/c1cc(OC)c(OC)cc1OC` [alpha-Asarone] was tested, and the cell death was inactive: 0.202. With `Cn1cc(C[C@@H](N)C(=O)O)c2ccccc21` [Indoximod] the cell death was inactive: 0.213. For `COc1cc(-c2nc3ccccc3s2)ccc1O`, the cell death was inactive: 0.121. `CC(C)C1=CC2=CC[C@@H]3[C@](C)(CCC[C@@]3(C)C(=O)O)[C@H]2CC1` [Abietic Acid] was tested, and the cell death was inactive: 0.113. For `Cc1ccc([N+](=O)[O-])cc1S(=O)(=O)N(C)C`, the cell death was inactive: 0.22. For `CCCC(C)NC(=O)c1ccc(Cl)c(Cl)c1` (stereo not drawn), the cell death was inactive: 0.17. In the case of `O=C(CN1CCN(C(=O)c2ccco2)CC1)Nc1cc(C(F)(F)F)ccc1Cl`, the cell death is reported as active: 0.71. In the case of `NCCCC(=O)O` [4-Aminobutyric acid], the cell death is reported as inactive: 0.00375.
